The list shows a part of the results. These are further read-outs of the screen, such as a control signal, another cell line or another target. No call is given for them. Compounds called inactive in the main read-out are mostly missing here. Potencies come from curve fits of mixed quality, noted in brackets.
Assay: qHTS Assay to Find Inhibitors of Chronic Active B-Cell Receptor Signaling
Details: ABC-DLBCL IkBa-CBG/CBR reporter, luminescence ratio (green luciferase fused to IkBa over red control in TMD8 lymphoma cells), 4 h
Summary of the method: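 Compounds up to 46 uM were incubated four hours with TMD8 cells whose green CBG68 luciferase is fused to IkappaBalpha; red CBR luminescence normalised the signal, and concentration-effect curves were fitted to fusion, red and ratio data.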

[1] = measured here: CBR red luminescence, cell number
[2] = measured here: IkBa-CBG green luminescence

| Structure (SMILES) | AC50 [1] | AC50 [2] |
| --- | --- | --- |
| O=C(Nc1ccccc1)c1ccc(-c2ccc([N+](=O)[O-])cc2)o1 | 35.5 µM [falling, single point] | – |
| CC(C)Sc1nc2sc(-c3ccccc3)cc2c(=O)n1N | 31.6 µM [falling, single point] | – |
| COc1cc(-n2nnnc2SCC(=O)N2CCN(c3ccc(F)cc3)CC2)c(OC)cc1Cl | 14.6 µM [rising, partial curve, poor fit] | – |
| O=C(CCCN1C(=O)/C(=C/c2ccccc2)SC1=S)Nc1cccc(O)c1 | 11.2 µM [falling, partial curve] | – |
| COc1ccc(C(=O)/C=C\N2CCOCC2)cc1 | 1.84 µM [rising, full curve, poor fit] | – |
| COc1cc(C(=O)OCC(=O)c2c(N)n(C)c(=O)n(C)c2=O)ccc1OCCC(C)C | 31.6 µM [rising, partial curve, poor fit] | – |
| O=C(NNC(=O)c1ccc(-n2cncn2)c([N+](=O)[O-])c1)c1cccc(Cl)c1 | 13 µM [falling, partial curve, poor fit] | – |
| CSc1nc(N)c(C(=O)Nc2ccc([N+](=O)[O-])cc2)s1 | 0.112 µM [rising, full curve, poor fit] | – |
| CCCCCCCn1c2c(c(=N)c3ccccc31)CCC2 | 22.4 µM [falling, single point] | – |
| Cc1ccc(NC(=O)c2csc(-c3ccccc3)c2C)cc1 | 17.8 µM [rising, partial curve, poor fit] | – |
| NC(=S)N/N=C\c1c2ccccc2cc2ccccc12 | 2.59 µM [falling, partial curve, poor fit] | 18.4 µM [rising, partial curve, poor fit] |
| C/C(=N/NC(=O)c1ccc(O)cc1)c1cccc([N+](=O)[O-])c1 | 0.731 µM [falling, full curve] | – |
| CCc1c(C(=O)NCCc2cccc(C)c2)[nH]c(C)c1C(C)=O | 20 µM [falling, single point] | – |
| NC(=O)NCC(=O)N1CCC(C(O)(c2ccccc2)c2ccccc2)CC1 | 0.891 µM [rising, full curve, poor fit] | – |
| CC(C)OC(=O)CC12CN3CN(C1)CC(CC(=O)OC(C)C)(C3)C2=O | 4.47 µM [falling, full curve, poor fit] | – |
| Cn1c(CCN2CCN(c3ccc(F)cc3)CC2)nc2cc(NC(=O)c3ccco3)ccc21 | 20 µM [falling, single point] | – |
| Cc1cccc(C(=O)Oc2ccc(/C=N/O)cc2)c1 | – | 25.9 µM [falling, partial curve, poor fit] |
| O=C(Nc1ccc2[nH]ncc2c1)c1ccccc1Br | 12.6 µM [falling, partial curve] | – |
| COCc1cc(C)nc2sc(C(=O)OC)c(N)c12 | 5.17 µM [falling, partial curve, poor fit] | – |
| O=C1CCCCC1Sc1nnc(Nc2ccccc2)s1 (configuration not stated) | 7.08 µM [falling, partial curve] | – |

| Structure (SMILES) | AC50 [1] | AC50 [2] |
| --- | --- | --- |
| CNc1nc(OCCNC(=O)Nc2ccccc2)nc(N2CCOCC2)n1 | 23.1 µM [rising, partial curve] | – |
| Cc1cccc(N2CCN(C3=NC(=O)/C(=C\c4cn[nH]c4-c4ccccc4)S3)CC2)c1 | 0.116 µM [rising, full curve, poor fit] | – |
| COc1cc(/C=C(\C#N)C(=O)NCC2CCCO2)cc(OC)c1OC (configuration not stated) | 22.4 µM [falling, single point] | – |
| Cc1cc(C)n(S(=O)(=O)c2ccc(C(C)(C)C)cc2)n1 | 29.1 µM [rising, single point] | – |
| COc1ccc(C(=O)O/N=C(\N)Cc2ccc([N+](=O)[O-])cc2)c(OC)c1 | 4.47 µM [rising, partial curve] | – |
| O=C(c1ccc(C(F)(F)F)cc1)C1CCCN(C(=O)CCc2cnccn2)C1 (configuration not stated) | 5.62 µM [rising, single point] | – |
| COc1ccc(C(=O)N(CN2CCCC2=O)c2nccs2)cc1OC | 3.16 µM [falling, full curve, poor fit] | – |
| COc1cc(NC(=O)C2CC(=O)NC3=C2C(=O)CCC3)c(OC)cc1Cl (configuration not stated) | 22.4 µM [rising, single point] | – |
| CCN(CC)S(=O)(=O)c1cc(NC(=O)COC(=O)c2c(C)noc2C)ccc1C | 6.51 µM [falling, partial curve] | – |
| O=C(NCCC1=CCCCC1)c1ccc2c(=O)n3nc(Nc4ccccc4)sc3nc2c1 | 10 µM [falling, partial curve] | – |
| CCN(CCCNC(=O)CN1C(=O)COc2ccccc21)c1cccc(C)c1 | 6.51 µM [rising, partial curve, poor fit] | – |
| Cc1ccc2nc(-c3ccc(NS(=O)(=O)c4ccc(F)c(F)c4)cc3)sc2c1 | 16.4 µM [falling, single point] | – |
| CC(C)[C@H](NC(=O)NCc1ccco1)C(=O)O | 17.8 µM [falling, single point] | – |
| Cc1cc(C)cc(-n2c(N)c(C(=O)Nc3c(C)n(C)n(-c4ccccc4)c3=O)c3nc4ccccc4nc32)c1 | 29.1 µM [falling, single point] | – |
| CCSC1=C(C#N)C(c2cccc(OC)c2)CC(=O)N1 (configuration not stated) | 5.8 µM [falling, single point] | – |
| Cc1ccc(NC(=O)c2ccc(OC(=O)CCN3C(=O)c4ccccc4C3=O)cc2)cc1 | 14.6 µM [falling, partial curve, poor fit] | – |
| CC1(C)CC(=O)C2=C(C1)Oc1ncn3nc(-c4cccnc4)nc3c1C2c1ccccc1 (configuration not stated) | 31.6 µM [rising, partial curve, poor fit] | – |
| N/C(=N\OC(=O)c1ccc(F)cc1)c1cccc([N+](=O)[O-])c1 | 0.355 µM [rising, full curve, poor fit] | – |
| O=C(CSc1n[nH]c(=O)n1C1CC1)Nc1ccc(F)c(Cl)c1 | 18.4 µM [falling, single point] | – |
| CN(C)c1nc(=Nc2cccc(Cl)c2)ss1 | 3.98 µM [falling, full curve, poor fit] | 1.12 µM [falling, full curve] |

| Structure (SMILES) | AC50 [1] | AC50 [2] |
| --- | --- | --- |
| CCOc1ccc(C2=NNC(c3cccs3)=Nc3ccc(OC)cc32)cc1 | 29.1 µM [falling, single point] | – |
| COc1cccc(NC(=O)C2CCN(c3nnc(C)c4c(C)n(-c5ccccc5)nc34)CC2)c1 | 22.4 µM [falling, single point] | – |
| CN(CC(=O)Nc1ccc(F)c(F)c1F)C(=O)CC1CCCCC1 | 25.9 µM [rising, single point] | – |
| COc1cccc(C(c2c(NC(=O)c3ccco3)sc(C)c2C)N2CCOCC2)c1 (configuration not stated) | 20.6 µM [falling, single point] | – |
| Cn1c(=O)n(CCc2ccccc2)c(=O)c2c1nc1n2CCN1Cc1ccco1 | 11.2 µM [falling, partial curve] | – |
| Cc1cc(C)nc(-n2nc(C)cc2NC(=O)c2ccc(S(=O)(=O)N3CCOCC3)cc2)n1 | 3.16 µM [falling, partial curve, poor fit] | – |
| O=C(CSc1ncn[nH]1)c1cccc([N+](=O)[O-])c1 | – | 20.6 µM [falling, single point] |
| Cc1ccc(NC(=O)NC2CCCc3ccccc32)cc1 (configuration not stated) | 1 µM [falling, full curve, poor fit] | – |
| O=C(CCCOc1ccc(Cl)cc1Cl)NCC1CCCO1 (configuration not stated) | 29.1 µM [rising, single point] | – |
| COc1ccccc1N1CCN(C(=O)Nc2ccc([N+](=O)[O-])cc2)CC1 | 0.0651 µM [rising, full curve, poor fit] | – |
| COC(=O)c1sccc1NC(=O)COc1ccccc1Cl | 6.51 µM [falling, partial curve] | – |
| O=C(O)Cc1nn(Cc2ccc(Cl)cc2)c(=O)c2ccccc12 | 11.2 µM [falling, partial curve] | – |
| CCOc1ccccc1N(CC(=O)Nc1ccccc1C(=O)N1CCCC1)S(C)(=O)=O | 5.62 µM [falling, single point] | – |
| C=CCN(C(=O)COC(=O)c1cc[n+]([O-])cc1)c1nc(-c2ccccc2)cs1 | 2.59 µM [rising, partial curve, poor fit] | – |
| COc1ccccc1NS(=O)(=O)c1cccc(C(=O)N/N=C/c2ccc([N+](=O)[O-])o2)c1 | 16.4 µM [falling, partial curve] | – |
| COc1ccc(C2C(C#N)=C(N)N(Nc3ccccc3)C3=C2C(=O)CC(C)(C)C3)cc1C (configuration not stated) | 11.2 µM [falling, partial curve] | – |
| O=c1c2c(nc3c(-c4ccccc4)c[nH]n13)CCC2 | 12.6 µM [falling, partial curve] | – |
| Cc1ccccc1NC(=O)Nc1nc2ccc(S(C)(=O)=O)cc2s1 | 2.59 µM [falling, full curve] | – |
| CC1Oc2ccccc2C=C1/C=N\NC(=O)c1cccnc1 (configuration not stated) | 35.5 µM [falling, single point] | – |
| CCN(CC)S(=O)(=O)c1ccc(-c2csc(C)n2)s1 | 7.08 µM [rising, full curve, poor fit] | – |

As a short view, some entries already given:

| Structure (SMILES) | AC50 [1] | AC50 [2] |
| --- | --- | --- |
| COC(=O)c1sccc1NC(=O)COc1ccccc1Cl | 6.51 µM [falling, partial curve] | – |
| O=C(O)Cc1nn(Cc2ccc(Cl)cc2)c(=O)c2ccccc12 | 11.2 µM [falling, partial curve] | – |
| CCOc1ccccc1N(CC(=O)Nc1ccccc1C(=O)N1CCCC1)S(C)(=O)=O | 5.62 µM [falling, single point] | – |
| C=CCN(C(=O)COC(=O)c1cc[n+]([O-])cc1)c1nc(-c2ccccc2)cs1 | 2.59 µM [rising, partial curve, poor fit] | – |
